This passage reports binding signal results from article PMC7862700.

Test in all cases: DAPPL (digital affinity profiling via proximity ligation, sequencing)
Details in all cases: 10 mM Tris-HCl pH 7.5, 50 mM NaCl, 1 mM DTT, 4% glycerol, room temperature, 30 min; GST-TFs on glutathione beads, 16-mer random dsDNA library, 0.1% …; high values mean tight binding; double strand, one strand shown; scale: fold enrichment (6-mer frequency, TF over GST control)

One assay deals with T1, ELK1 (UniProt P19419).
T1 sequence: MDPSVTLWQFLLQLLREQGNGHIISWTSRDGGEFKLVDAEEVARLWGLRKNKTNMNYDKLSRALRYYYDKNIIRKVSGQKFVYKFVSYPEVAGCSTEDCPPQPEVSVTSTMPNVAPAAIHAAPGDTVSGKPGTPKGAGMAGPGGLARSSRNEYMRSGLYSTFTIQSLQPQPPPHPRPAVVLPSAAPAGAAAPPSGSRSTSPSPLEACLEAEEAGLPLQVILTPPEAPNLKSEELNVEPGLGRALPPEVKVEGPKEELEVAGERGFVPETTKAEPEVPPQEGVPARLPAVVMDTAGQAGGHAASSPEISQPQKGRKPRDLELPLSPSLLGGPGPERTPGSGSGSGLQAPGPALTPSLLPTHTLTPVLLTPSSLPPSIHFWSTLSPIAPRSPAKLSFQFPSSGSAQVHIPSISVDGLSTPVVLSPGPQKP

Another assay deals with T2, ELK3 (UniProt P41970).
T2 sequence: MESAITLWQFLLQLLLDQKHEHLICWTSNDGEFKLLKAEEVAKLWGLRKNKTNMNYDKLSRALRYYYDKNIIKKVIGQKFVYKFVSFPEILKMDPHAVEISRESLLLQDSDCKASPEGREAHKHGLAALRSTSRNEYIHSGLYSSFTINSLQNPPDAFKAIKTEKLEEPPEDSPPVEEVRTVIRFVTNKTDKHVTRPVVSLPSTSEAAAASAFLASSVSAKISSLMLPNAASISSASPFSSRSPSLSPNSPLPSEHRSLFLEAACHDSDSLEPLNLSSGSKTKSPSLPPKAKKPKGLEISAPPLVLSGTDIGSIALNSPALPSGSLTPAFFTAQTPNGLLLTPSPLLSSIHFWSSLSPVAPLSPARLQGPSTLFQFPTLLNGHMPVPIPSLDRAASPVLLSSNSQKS

A further assay concerns the target T3, SPIC (UniProt Q8N5J4).
T3 sequence: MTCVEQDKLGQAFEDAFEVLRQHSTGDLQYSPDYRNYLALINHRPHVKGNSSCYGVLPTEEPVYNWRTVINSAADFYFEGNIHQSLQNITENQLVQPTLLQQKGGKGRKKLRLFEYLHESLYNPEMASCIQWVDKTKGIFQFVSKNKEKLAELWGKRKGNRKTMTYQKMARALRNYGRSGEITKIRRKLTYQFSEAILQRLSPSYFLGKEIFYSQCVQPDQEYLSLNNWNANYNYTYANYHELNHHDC

A further assay concerns the target T4, ETS2 (UniProt P15036).
T4 sequence: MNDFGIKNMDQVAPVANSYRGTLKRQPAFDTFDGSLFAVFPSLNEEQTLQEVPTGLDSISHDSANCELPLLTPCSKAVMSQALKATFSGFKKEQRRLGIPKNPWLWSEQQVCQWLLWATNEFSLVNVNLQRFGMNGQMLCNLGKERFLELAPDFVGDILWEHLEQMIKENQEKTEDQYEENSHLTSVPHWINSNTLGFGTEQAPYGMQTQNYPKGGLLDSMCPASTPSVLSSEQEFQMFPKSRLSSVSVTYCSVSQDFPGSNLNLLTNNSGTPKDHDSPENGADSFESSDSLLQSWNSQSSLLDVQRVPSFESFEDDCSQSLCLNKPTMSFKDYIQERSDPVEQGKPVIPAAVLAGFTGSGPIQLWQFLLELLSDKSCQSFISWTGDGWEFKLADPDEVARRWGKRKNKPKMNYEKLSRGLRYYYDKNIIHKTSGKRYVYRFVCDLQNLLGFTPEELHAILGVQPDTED

The target in another assay is T5, ETV3 (UniProt P41162-2).
T5 sequence: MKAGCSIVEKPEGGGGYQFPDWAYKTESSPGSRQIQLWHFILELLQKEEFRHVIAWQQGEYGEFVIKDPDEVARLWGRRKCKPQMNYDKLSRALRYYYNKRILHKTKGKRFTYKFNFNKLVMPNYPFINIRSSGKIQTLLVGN

The entries are a selection whose mix differs from that of the whole data set. At the low end of the ranking the order means little.

Regarding CAGAAC, the binding signal with ELK1 stood at 0.921; with ELK3 it was 0.876; with SPIC, 0.957; in the assay with ETS2, 0.903; with ETV3, 0.896.
Consider GTCTAG, for which the binding signal with ELK1 amounted to 0.817; with ELK3 it was 0.879; in the assay with SPIC it was 0.855; with ETS2 it was 0.849; in the assay with ETV3 it was 0.898.
For TGTCGC, in that order: 0.999, 0.969, 0.907, 0.925 and 0.912.
Turning to ACCGGT, the binding signal in the assay with ELK1 was 0.924; in the assay with ELK3 it was 0.841; in the assay with SPIC, 0.884; with ETS2, 0.945; in the assay with ETV3, 0.886.
For TGGGAC, in that order: 0.954, 0.933, 1, 0.906 and 0.945.
As for CGTTGG, the binding signal with ELK1 was found to be 0.853; in the assay with ELK3, 0.862; with SPIC it was 0.889; in the assay with ETS2, 0.87; with ETV3 it was 0.813.
Taken in the same sequence, the figures for GCCGTC were 1.03, 0.919, 0.976, 0.958 and 0.906.
For TGTTAG, in that order: 0.981, 0.907, 0.869, 0.985 and 0.964.
For TTCAGA, in that order: 0.931, 0.971, 0.984, 0.984 and 0.938.
On to CGAAGA, for which the binding signal with ELK1 was 0.825; with ELK3, 0.776; with SPIC, 0.795; with ETS2 it was 0.824; with ETV3, 0.733.
For ACGAAG, in that order: 0.946, 0.936, 0.99, 0.914 and 0.915.
With TTAGTG, the binding signal was found to be 0.862 in the assay with ELK1; 0.896 with ELK3; 0.615 with SPIC; 0.911 with ETS2; 0.853 with ETV3.
On to GCCTAG, for which the binding signal is 0.962 with ELK1; 0.93 in the assay with ELK3; 0.989 with SPIC; 1 in the assay with ETS2; 0.987 with ETV3.
For AGTACC, in that order: 0.932, 0.907, 0.975, 0.93 and 0.907.
Consider GCAAGC, for which the binding signal was found to be 0.905 in the assay with ELK1; 0.922 in the assay with ELK3; 0.729 with SPIC; 0.934 with ETS2; 0.903 with ETV3.
Taken in the same sequence, the figures for TAAGGG were 0.897, 1.04, 1.18, 1 and 0.938.
Taken in the same sequence, the figures for CCAAGA were 0.941, 0.908, 0.901, 0.9 and 0.885.
Turning to ATTAGA, the binding signal is 0.885 in the assay with ELK1; 0.89 in the assay with ELK3; 0.935 with SPIC; 0.862 in the assay with ETS2; 0.887 with ETV3.
Regarding GGATTA, the binding signal with ELK1 was 0.833; with ELK3, 0.866; with SPIC, 0.852; in the assay with ETS2 it was 0.847; with ETV3, 0.763.
Taken in the same sequence, the figures for CGGACC were 0.801, 0.74, 0.718, 0.786 and 0.873.
Taken in the same sequence, the figures for CGGCAC were 0.924, 0.942, 0.972, 0.932 and 1.03.
As for CAGAAA, the binding signal in the assay with ELK1 came to 0.932; with ELK3, 0.943; in the assay with SPIC, 0.97; with ETS2, 0.961; in the assay with ETV3 it was 0.931.
Consider GAATCA, for which the binding signal in the assay with ELK1 is 0.907; in the assay with ELK3, 0.87; with SPIC, 0.849; with ETS2, 0.918; with ETV3, 0.848.
Taken in the same sequence, the figures for GAGAAT were 0.716, 0.792, 0.734, 0.758 and 0.728.
For TCGCGT, in that order: 0.841, 0.997, 0.83, 0.968 and 0.996.
On to ACAGTT, for which the binding signal with ELK1 was 0.887; with ELK3, 0.945; in the assay with SPIC, 0.871; in the assay with ETS2 it was 0.809; with ETV3, 0.943.
For ACCAAG, in that order: 0.912, 0.914, 0.897, 0.946 and 0.879.
Taken in the same sequence, the figures for TCGAAA were 0.959, 0.939, 1.06, 0.939 and 0.883.
For ACTCAG, in that order: 0.998, 0.969, 1.11, 0.97 and 0.95.
For GCACAC, the binding signal turned out to be 0.994 with ELK1; 0.926 with ELK3; 0.917 with SPIC; 0.924 with ETS2; 1.05 with ETV3.
On to CATAGA, for which the binding signal came out at 0.9 with ELK1; 0.933 with ELK3; 0.973 with SPIC; 0.952 with ETS2; 0.889 in the assay with ETV3.
For GATAAC, in that order: 0.996, 0.961, 0.73, 0.97 and 0.942.
For GCATTA, in that order: 0.811, 0.862, 0.777, 0.868 and 0.872.
For TTAGTC, in that order: 0.725, 0.808, 0.869, 0.793 and 0.789.
With GGATCA, the binding signal with ELK1 came out at 0.811; in the assay with ELK3, 0.876; with SPIC it was 0.825; with ETS2, 0.789; with ETV3 it was 0.739.
For GCGTCA, in that order: 0.99, 0.962, 0.987, 0.978 and 0.912.
Taken in the same sequence, the figures for GGTTGT were 0.9, 0.86, 0.896, 0.995 and 0.853.
For CCGCGG, in that order: 0.945, 0.771, 0.845, 0.957 and 0.959.
As to CATTGG, the binding signal with ELK1 was 0.935; in the assay with ELK3, 0.958; in the assay with SPIC it was 0.95; with ETS2 it was 0.962; with ETV3 it was 0.883.
Turning to CCATAG, the binding signal with ELK1 stood at 0.913; with ELK3, 0.948; with SPIC, 0.941; in the assay with ETS2 it was 0.84; with ETV3 it was 0.915.
Taken in the same sequence, the figures for AGCATA were 0.914, 0.977, 0.863, 0.953 and 0.945.
Taken in the same sequence, the figures for AAGGGA were 0.87, 0.846, 0.828, 0.939 and 0.832.
Taken in the same sequence, the figures for GCGAAG were 0.91, 0.932, 0.966, 0.863 and 0.857.
Consider TCGTCG, for which the binding signal with ELK1 is 0.921; with ELK3 it was 0.896; with SPIC, 0.959; in the assay with ETS2, 0.918; in the assay with ETV3 it was 0.993.
For CTGAGG, in that order: 0.841, 0.771, 0.781, 0.815 and 0.854.
On to GTGGTC, for which the binding signal was found to be 0.852 with ELK1; 0.957 with ELK3; 0.815 with SPIC; 0.919 in the assay with ETS2; 0.862 with ETV3.
For TCATAG, in that order: 0.984, 0.899, 0.816, 0.926 and 0.9.
Turning to ACGGTA, the binding signal amounted to 1.03 with ELK1; 0.943 with ELK3; 0.904 with SPIC; 0.917 with ETS2; 0.977 with ETV3.
For CGAGAT, in that order: 0.918, 0.838, 0.861, 0.863 and 0.859.
Consider GACTAT, for which the binding signal worked out at 0.897 with ELK1; 0.858 in the assay with ELK3; 0.912 with SPIC; 0.963 with ETS2; 0.987 with ETV3.
Taken in the same sequence, the figures for TAAGTC were 0.941, 0.938, 0.868, 0.909 and 0.907.
As to GGCCTG, the binding signal with ELK1 amounted to 0.877; with ELK3, 0.996; with SPIC, 0.974; with ETS2, 0.898; with ETV3 it was 0.915.
As to GTGACT, the binding signal with ELK1 came out at 0.952; in the assay with ELK3, 0.902; with SPIC, 0.875; in the assay with ETS2 it was 0.945; with ETV3 it was 0.879.
For GACGTT, in that order: 0.924, 0.857, 0.9, 0.884 and 0.92.
Taken in the same sequence, the figures for GTTCAG were 0.936, 0.833, 0.91, 0.89 and 0.922.
For AGGGAT, in that order: 0.776, 0.796, 0.741, 0.81 and 0.784.
As for AAGCCG, the binding signal amounted to 0.939 with ELK1; 0.968 with ELK3; 0.892 in the assay with SPIC; 0.863 with ETS2; 0.916 in the assay with ETV3.
Regarding GATTAG, the binding signal was 0.911 with ELK1; 0.823 with ELK3; 0.853 with SPIC; 0.871 with ETS2; 0.833 with ETV3.
For GCTAGA, in that order: 0.966, 0.962, 0.855, 0.98 and 0.955.
For TAGCGC, in that order: 0.966, 0.793, 0.846, 0.956 and 0.908.
